Ki data for 13 compounds are collected here from patent publication US7652020B2, “Compounds for the treatment of inflammatory disorders” (Schering Corporation, priority 2004, dated 2010).

Protein sequences, listed by entry. Tags and fused reporters are not part of them. Residues count along the entry.
UniProt P78536, 215-477 S266A/N452Q limits assumed: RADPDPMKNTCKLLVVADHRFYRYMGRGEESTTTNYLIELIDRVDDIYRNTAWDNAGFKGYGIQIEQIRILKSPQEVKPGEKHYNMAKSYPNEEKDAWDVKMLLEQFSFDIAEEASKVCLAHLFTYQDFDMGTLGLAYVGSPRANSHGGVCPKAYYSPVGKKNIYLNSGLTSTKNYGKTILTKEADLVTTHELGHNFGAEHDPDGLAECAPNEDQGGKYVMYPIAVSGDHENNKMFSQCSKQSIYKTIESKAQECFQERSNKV

Molecules are shown by their SMILES. pKi: −log10 of the molar value. The match of structure and compound is tentative.

The experiment concerns the target purified catalytic domain of recombinant human TACE (rhTACEc) (Homo sapiens, UniProt P78536, N452Q/S266A). Put plainly: TACE kinetic assay: cleavage of internally quenched peptide substrate SPDL-3, fluorescence. The conditions noted are these: TACE inhibitory activity, class symbols. Type of experiment: biochemical.
Consider `C[C@@H](NC(=O)[C@H](O)[C@@H](O)C(=O)N1C[C@H]2C[C@@H](C1)c1cccc(=O)n1C2)c1ccc(-n2cccn2)cc1`, for which the pKi was 6.00 to 7.00.

In the case of `C[C@@H](NC(=O)[C@H](O)[C@@H](O)C(=O)N1CC=CC1c1cccc(Cl)c1)c1ccc(-n2cccn2)cc1` (stereo partly shown), the pKi was over 7.70.

For the compound `C[C@@H](NC(=O)[C@](C)(O)[C@@H](O)C(=O)N1Cc2nccnc2C1)c1ccc(-n2cccn2)cc1`, the pKi was over 7.70.

Turning to `C[C@@H](NC(=O)[C@H](O)[C@@H](O)C(=O)N1Cc2cnc(N)nc2C1(C)C)c1ccc(-n2cccn2)cc1`, the pKi was 7.00 to 7.70.

As for `Cn1ccnc1[C@H](O)[C@@H](O)C(=O)NCC1CCN(c2ccccc2OC(F)(F)F)CC1`, the pKi was 6.00 to 7.00.

On to `C[C@@H](NC(=O)[C@H](O)[C@@H](O)C(=O)N1Cc2nccnc2C1)c1ccc(-n2cccn2)cc1`, for which the pKi was over 7.70.

Turning to `CC(C)(C)CCOc1cc(F)ccc1-c1ccc(CNC(=O)[C@H](O)[C@@H](O)C(=O)N2CCCC2)cc1`, the pKi is 6.00 to 7.00.

As to `C[C@@H](NC(=O)[C@H](O)[C@@H](O)C(=O)N1CCOCC1c1ccccc1)c1ccc(-n2cccn2)cc1` (stereo partly shown), the pKi was over 7.70.

As to `O=C(NCc1ccc(-c2ccccc2Oc2ccccc2)cc1)[C@H](O)[C@@H](O)C(=O)N1CCCC1`, the pKi was 6.00 to 7.00.

As for `CCOc1cc(F)ccc1-c1ccc(CNC(=O)C(O)C(O)C(=O)N2Cc3ccccc3C2(C)C)cc1` (stereo not shown), the pKi is 6.00 to 7.00.

As to `CC#CCOc1cc([C@@H](C)NC(=O)[C@H](O)[C@@H](O)C(=O)N2CCC[C@@H]2c2csc(NC(C)C)n2)ccc1-n1cccn1`, the negative logarithm of the Ki (pKi) was over 7.70.

In the case of `N#Cc1nc(CNC(=O)[C@H](O)[C@@H](O)C(=O)N2Cc3ccccc3C2)ccc1-c1ccccc1OC(F)(F)F`, the pKi was under 6.00.

As for `CCOc1cc(F)ccc1-c1ccc(C(C)(C)NC(=O)[C@H](O)[C@@H](O)C(=O)N2CCCC2)cc1`, the pKi was under 6.00.

In general, pKi refers to −log10 of the Ki, conventionally taken in molar units.
